Changes are numbered by the printed parent chain. These are yes or no findings as the source states them, for the method shown. Binding seen in cells or lysates may run through a third protein. Some binding calls cover weakened binding; strength is not graded here. Where a sequence is shown, tags or fusion partners need not be part of it.
How the values were obtained:
Assay in all cases: co-IP
[1] = target: T1, HA-DRG2 D257A (human) (UniProt P55039)
T1 sequence: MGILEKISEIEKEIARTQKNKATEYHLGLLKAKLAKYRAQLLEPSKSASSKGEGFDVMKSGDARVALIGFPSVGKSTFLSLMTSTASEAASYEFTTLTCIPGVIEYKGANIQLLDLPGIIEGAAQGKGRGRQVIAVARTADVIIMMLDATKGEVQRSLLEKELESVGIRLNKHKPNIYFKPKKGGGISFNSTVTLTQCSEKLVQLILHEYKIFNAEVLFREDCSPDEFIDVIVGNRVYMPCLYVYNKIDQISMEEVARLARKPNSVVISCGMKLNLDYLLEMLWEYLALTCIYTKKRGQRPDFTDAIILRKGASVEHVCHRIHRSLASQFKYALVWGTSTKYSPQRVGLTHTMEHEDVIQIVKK

[2] = target: T2, HA-DRG2 D277A (human) (UniProt P55039)
T2 sequence: T1 sequence with A257D, D277A

[3] = target: T3, HA-DRG1 Y262A (human) (UniProt Q9Y295)
T3 sequence: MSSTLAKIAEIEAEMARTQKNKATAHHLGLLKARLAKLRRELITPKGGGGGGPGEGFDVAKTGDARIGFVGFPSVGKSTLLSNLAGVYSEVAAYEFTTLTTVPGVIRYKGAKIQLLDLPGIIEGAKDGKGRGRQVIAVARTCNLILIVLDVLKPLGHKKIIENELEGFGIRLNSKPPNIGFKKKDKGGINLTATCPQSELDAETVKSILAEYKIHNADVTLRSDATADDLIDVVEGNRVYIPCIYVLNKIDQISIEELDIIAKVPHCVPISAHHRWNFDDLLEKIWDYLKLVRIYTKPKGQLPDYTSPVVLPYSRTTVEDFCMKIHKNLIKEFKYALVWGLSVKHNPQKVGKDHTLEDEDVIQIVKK

[4] = target: T4, HA-DRG2 K262V (human) (UniProt P55039)
T4 sequence: T1 sequence with A257D, K262V

[5] = target: T5, HA-DRG2 D257A + D277A (human) (UniProt P55039)
T5 sequence: T1 sequence with D277A

Measured: binding

B1: DRG family regulatory protein 2 (DFRP2), endogenous (protein, UniProt Q9H446 1-243)
chain: MTDYGEEQRNELEALESIYPDSFTVLSENPPSFTITVTSEAGENDETVQTTLKFTYSEKYPDEAPLYEIFSQENLEDNDVSDILKLLALQAEENLGMVMIFTLVTAVQEKLNEIVDQIKTRREEEKKQKEKEAEEAEKQLFHGTPVTIENFLNWKAKFDAELLEIKKKRMKEEEQAGKNKLSGKQLFETDHNLDTSDIQFLEDAGNNVEVDESLFQEMDDLELEDDEDDPDYNPADPESDSAD
binds: [1] | [2] | [3] | [4] | [5]
